# Assay results published in PubChem BioAssay AID1347076 (National Center for Advancing Translational Sciences (NCATS), 2019).
# The whole screen tested about 400,000 compounds, of which about 13,000 (3.2%) were called active. This list was built around the results that the source calls inconclusive (neither active nor inactive); the mix of calls is not that of the screen. Calls come from the whole dose curve; as a rule, active = well fitted cell-killing curve with a large enough effect; inconclusive = small, poorly fitted or top-dose-only effect, or effect the other way; inactive = flat fitted curve, though single readings scatter. Potencies beside an inconclusive call are fits to weak or partial responses and may not hold up.
# Experiment: qHTS assay for MDR1-selective chemotherapeutics: Primary screen using the drug-selected MDR subline cells KB-V1; note: nearly all actives have a fitted effect of over 60% in size
# Details: KB-V1 MDR cells viability, CellTiter-Glo, 72 h; series mostly up to 46.1 µM
# Summary of the method: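 KB-V1, DMEM (no phenol red) + 10% FBS; cpd pin-transferred, titration series; 72 h, 37 degrees C; CellTiter-Glo, luminescence. Data normalized, curve-fit.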
# Potency is the fitted concentration of half-maximal effect.
row,Structure (SMILES),Potency
1,CCc1c(C)sc2c1CCN(C(=O)Nc1ccc(F)c(Cl)c1)C2c1ccc(F)cc1 (stereo not drawn),"inconclusive: 29.1 µM [cytotoxic, single point]"
2,CC1CCC(NC(=O)Cn2cnc3sccc3c2=O)CC1 (stereo not drawn),inactive
3,Cc1sc(NC(=O)CS(=O)(=O)c2ccccc2)c(C#N)c1C,inactive
4,CCCCCSc1nnc(-c2cc(Br)ccc2N)c(=O)[nH]1,"inconclusive: 29.1 µM [rising, partial curve, poor fit]"
5,O=C(O)C1Nc2c(Cl)cc(Cl)c(Cl)c2C2C=CCC12 (stereo not drawn),inactive
6,COc1cc(SC)ccc1C(=O)NCCOc1ccc(C)c(C)c1,active: 16.4 µM
7,CCC(=O)N1N=C(c2cccc(NS(C)(=O)=O)c2)CC1c1cccs1 (stereo not drawn),active: 18.4 µM
8,Cc1ccccc1C(=O)OCCN(C)Cc1ccccc1,inactive
9,Cc1ccc(NC(=O)c2ccccc2NS(=O)(=O)c2ccc(Cl)s2)cc1,active: 7.31 µM
10,CSc1ccccc1OCc1cc(C(=O)NCc2cnc(C)cn2)no1,"inconclusive: 16.4 µM [cytotoxic, single point]"
11,COC(=O)CCNC(=O)N1CCN(c2nnc(C)c3c(C)n(-c4ccc(Cl)cc4)nc23)CC1,inactive
12,Cc1cccc(OCC(=O)Nc2cc(C)c(O)c(-c3nc4ccccc4o3)c2)c1,inactive
13,CC(C)(C)C(=O)Nc1cc(C(F)(F)F)ccc1N1CCOCC1,inactive
14,OCC[C@H]1C[C@@H](O)[C@H](O)[C@@]2(OCc3ccccc32)O1,"inconclusive: 16.4 µM [rising, single point]"
15,O=C(Nc1ncccc1O)c1ccc(C(=O)c2ccccc2)cc1,active: 23.1 µM
16,Cc1noc(C)c1CSCC(=O)Nc1nc(-c2ccc(F)c(F)c2)cs1,"inconclusive: 18.4 µM [cytotoxic, single point]"
17,O=C(c1ccccc1)c1cnc(Nc2ccccc2Cl)s1,active: 13 µM
18,COC(=O)c1ccc(CSc2nc3ccc(C)cc3[nH]2)o1,"inconclusive: 20.6 µM [cytotoxic, partial curve, poor fit]"
19,COc1cc(C(C(=O)NC2CCCCC2)N(C(=O)c2snc(C(N)=O)c2N)c2ccc(C)cc2)ccc1O (stereo not drawn),"inconclusive: 29.1 µM [cytotoxic, single point]"
20,COc1ccc(C2CC(=O)C(CS(=O)(=O)c3ccccc3)C(=O)C2)cc1 (stereo not drawn),inactive
21,COc1cc(/C=N/NC(=O)c2cc(-c3ccccc3)sc2N)cc(OC)c1OC,"inconclusive: 29.1 µM [cytotoxic, single point]"
22,COC(=O)c1c(-c2ccccc2)csc1NC(=O)CSc1ncnc2sc(C)c(C)c12,active: 11.6 µM
23,C/C(=C\c1cc2ccccc2o1)C1Nc2cccc3cccc(c23)N1,inactive
24,COc1ccc2cc(C(C)C(=O)O)ccc2c1 (stereo not drawn),inactive
25,O=C(N1CCCCC1)N1CCN(C(=O)N(c2ccccc2)c2ccccc2)CC1,"inconclusive: 7.31 µM [cytotoxic, partial curve, poor fit]"

# Molecules shown so far that contain fluorine, in the order listed:
row,Structure (SMILES),Potency
1,CCc1c(C)sc2c1CCN(C(=O)Nc1ccc(F)c(Cl)c1)C2c1ccc(F)cc1 (stereo not drawn),"inconclusive: 29.1 µM [cytotoxic, single point]"
13,CC(C)(C)C(=O)Nc1cc(C(F)(F)F)ccc1N1CCOCC1,inactive
16,Cc1noc(C)c1CSCC(=O)Nc1nc(-c2ccc(F)c(F)c2)cs1,"inconclusive: 18.4 µM [cytotoxic, single point]"

# Next records

row,Structure (SMILES),Potency
1,COc1cc(NC(=O)Nc2ccccc2)c(OC)cc1NC(=O)CN1CCCCC1,"inconclusive: 25.9 µM [cytotoxic, single point]"
2,Cc1cc(C)c(NC(=O)COc2ccc3c(C)cc(=O)oc3c2)c(C)c1,inactive
3,O=C(NC1CC1)C1CCN(Cc2cnn(-c3ccccc3)c2-n2cccc2)CC1,inactive
4,N/C(=N\N=C\c1ccco1)SC1CC(=O)N(c2ccc(C(=O)O)cc2)C1=O (stereo not drawn),"inconclusive: 29.1 µM [rising, single point]"
5,CCn1c(SCC(=O)c2ccccc2)nc2ccccc2c1=O,"inconclusive: 20.6 µM [cytotoxic, single point]"
6,O=C(CSc1nc2c([nH]c3ccccc32)c(=O)n1-c1ccc(Cl)cc1)N1CCCC1,inactive
7,COc1ccccc1C(=O)Nc1nnc(-c2ccc3c(c2)CCCC3)o1,"inconclusive: 18.4 µM [cytotoxic, single point]"
8,Cc1ccc(CNC(=O)CCNC(=O)c2ccco2)cc1,"inconclusive: 29.1 µM [rising, single point]"
9,COc1ccc(C(=O)NC2CCCCC2)cc1S(=O)(=O)N1CCCC1,inactive
10,Cc1ccc(C(C)C)c(OCCSc2nc3ccccc3n2CC(=O)O)c1,"inconclusive: 29.1 µM [rising, single point]"
11,Cc1nc(-c2ccc(S(=O)(=O)Nc3ccc(C)c(N(C)C)c3)cc2)co1,"inconclusive: 29.1 µM [cytotoxic, single point]"
12,COc1ccc2nc(NC(=O)C3CCN(C(=O)c4ccco4)CC3)sc2c1,inactive
13,O=C(COC(=O)COc1ccc(Cl)cc1)NCCCc1ccccc1,"inconclusive: 25.9 µM [rising, single point]"
14,Cc1ccc(S(=O)(=O)N(Cc2cc3ccccc3[nH]c2=O)CC2CCCO2)cc1 (stereo not drawn),inactive
15,COCCNc1nc(-c2cc3ccccc3o2)cs1,"inconclusive: 29.1 µM [cytotoxic, single point]"
16,Cc1c(NC(=O)Nc2cccc(Cl)c2Cl)c(=O)n(-c2ccccc2)n1C,"inconclusive: 32.6 µM [cytotoxic, partial curve, poor fit]"
17,CCCN1C(=O)c2ccccc2NC1c1ccc(C)cc1 (stereo not drawn),"inconclusive: 18.4 µM [cytotoxic, single point]"
18,CC(C(=O)N(C)C1CCS(=O)(=O)C1)N1C(=O)/C(=C/c2cccs2)SC1=S (stereo not drawn),"inconclusive: 13 µM [cytotoxic, partial curve, poor fit]"
19,CC(=O)O[C@H]1C(=O)[C@@]2(C)[C@H]([C@H](OC(=O)c3ccccc3)[C@]3(O)C[C@H](OC(=O)[C@H](O)C(NC(=O)c4ccccc4)c4ccccc4)C(C)=C1C3(C)C)[C@]1(OC(C)=O)CO[C@@H]1C[C@@H]2O (stereo partly drawn),"inconclusive: 14.6 µM [cytotoxic, partial curve, poor fit]"
20,O=C(OCn1ncc(Br)c(Br)c1=O)c1ccccc1Cl,active: 5.8 µM
21,Cc1ccc2[nH]c(=O)c(COC(=O)c3ccccn3)cc2c1,active: 16.4 µM
22,CCn1cc(S(=O)(=O)NCCc2ccc(OC)c(OC)c2)cn1,inactive
23,O=C(Nc1ccncc1)OCc1ccccc1,"inconclusive: 29.1 µM [cytotoxic, single point]"
24,O=C(NCCC1=CCCCC1)c1ccc2c(=O)n3c(nc2c1)CCCCC3,"inconclusive: 1.46 µM [cytotoxic, full curve]"
25,CC(=O)Nc1sc2c(c1-c1nc3ccccc3s1)CN(C(C)C)CC2,"inconclusive: 18.4 µM [cytotoxic, single point]"

row,Structure (SMILES),Potency
1,COc1ccc(CNC(=O)COC(=O)c2ccc(F)c(S(=O)(=O)N3CCCCC3)c2)cc1OC,inactive
2,CN(C)S(=O)(=O)c1ccc(C(=O)Nc2nc(-c3ccccc3)c(C(=O)c3ccccc3)s2)cc1,active: 16.4 µM
3,CCN(Cc1ccc2c(c1)OCO2)C(=O)CSc1nc(C)nc2sc(C)c(C)c12,"inconclusive: 16.4 µM [cytotoxic, single point]"
4,CC(=O)N=c1c(C#N)cc2c(=O)n3ccccc3nc2n1Cc1ccccc1,inactive
5,CC(=O)Oc1cc2oc(=O)cc(C)c2cc1OC(C)=O,"inconclusive: 25.9 µM [cytotoxic, single point]"
6,COc1ccc(CCNC(=O)CSc2nnc(CNC(=O)c3c(F)cccc3Cl)o2)cc1OC,"inconclusive: 23.1 µM [rising, single point]"
7,O=C1C2=C(NC(=S)NC2c2ccc(Cl)cc2)NC(c2ccc(Cl)cc2)N1c1ccc(Cl)cc1 (stereo not drawn),"inconclusive: 23.1 µM [cytotoxic, single point]"
8,O=C(O)CSc1cc(NS(=O)(=O)c2ccc(Cl)cc2)c2ccccc2c1O,"inconclusive: 29.1 µM [cytotoxic, single point]"
9,C=CCN(C(=O)c1csnn1)C(C(=O)NC1CCCC1)c1ccc(OC)cc1 (stereo not drawn),"inconclusive: 7.31 µM [cytotoxic, partial curve, poor fit]"
10,CCc1ccc(NC(=O)CN(c2cccc(C)c2)S(C)(=O)=O)cc1,"inconclusive: 16.4 µM [cytotoxic, single point]"
11,Cc1nn(-c2cccc(Cl)c2)c2nc(C(F)(F)F)[nH]c(=O)c12,inactive
12,O=C(O)c1ccc(N/N=C/C2=Cc3ccccc3OC2)cc1,inactive
13,Cc1ccc(C(NC(=O)C2CCN(CCOc3ccc(Cl)cc3Cl)CC2)c2ccccn2)cc1 (stereo not drawn),inactive
14,CCOc1ccc(N(C)C(CNS(=O)(=O)c2ccccc2)c2ccccc2)cc1 (stereo not drawn),"inconclusive: 32.6 µM [cytotoxic, partial curve, poor fit]"
15,Cc1ccc(-n2c(CNc3cccc(Cl)c3)n[nH]c2=S)cc1,"inconclusive: 29.1 µM [cytotoxic, single point]"
16,Cc1ccccc1CN(C)C(=O)[C@H](Cc1ccccc1)NC(=O)c1ccco1,"inconclusive: 23.1 µM [cytotoxic, single point]"
17,CCOC(=O)CNC(=O)N1CCCC(C(=O)c2ccc3c(c2)OCO3)C1 (stereo not drawn),"inconclusive: 0.13 µM [rising, full curve]"
18,Oc1c(C(c2ccccc2)N2CCCCC2)sc2ncnn12 (stereo not drawn),inactive
19,CC(=O)c1cc(-c2ccccc2)n(CC(=O)Nc2cc(C)cc(C)c2)c1C,"inconclusive: 18.4 µM [cytotoxic, single point]"
20,Cc1cc(C)c(C)c(OCCCN(C)C)c1,inactive
21,Cc1ccc(NC(=O)CN(CCc2ccccc2)S(C)(=O)=O)cc1,"inconclusive: 13 µM [cytotoxic, partial curve, poor fit]"
22,CCN1C(=O)C(c2ccc(O)cc2)(c2ccc(O)cc2)c2ccccc21,inactive
23,COCc1ccc(C(=O)N2CCCC(N3CCN(c4ccc(F)cc4)CC3)C2)o1 (stereo not drawn),"inconclusive: 3.66 µM [cytotoxic, full curve]"
